Test results as given in article PMC10766641.
Numbering of substitutions follows the chain as printed. These are yes or no findings as the source states them, for the method shown. In cells and extracts the contact can be indirect. Some results given as binding are weak or reduced against the parent protein; the word gives no strength. For some assays here: Tags and fused reporters may be left off the sequences shown.

The chains behind the UniProt entries cited, without tags or fusion partners.
UniProt Q93034: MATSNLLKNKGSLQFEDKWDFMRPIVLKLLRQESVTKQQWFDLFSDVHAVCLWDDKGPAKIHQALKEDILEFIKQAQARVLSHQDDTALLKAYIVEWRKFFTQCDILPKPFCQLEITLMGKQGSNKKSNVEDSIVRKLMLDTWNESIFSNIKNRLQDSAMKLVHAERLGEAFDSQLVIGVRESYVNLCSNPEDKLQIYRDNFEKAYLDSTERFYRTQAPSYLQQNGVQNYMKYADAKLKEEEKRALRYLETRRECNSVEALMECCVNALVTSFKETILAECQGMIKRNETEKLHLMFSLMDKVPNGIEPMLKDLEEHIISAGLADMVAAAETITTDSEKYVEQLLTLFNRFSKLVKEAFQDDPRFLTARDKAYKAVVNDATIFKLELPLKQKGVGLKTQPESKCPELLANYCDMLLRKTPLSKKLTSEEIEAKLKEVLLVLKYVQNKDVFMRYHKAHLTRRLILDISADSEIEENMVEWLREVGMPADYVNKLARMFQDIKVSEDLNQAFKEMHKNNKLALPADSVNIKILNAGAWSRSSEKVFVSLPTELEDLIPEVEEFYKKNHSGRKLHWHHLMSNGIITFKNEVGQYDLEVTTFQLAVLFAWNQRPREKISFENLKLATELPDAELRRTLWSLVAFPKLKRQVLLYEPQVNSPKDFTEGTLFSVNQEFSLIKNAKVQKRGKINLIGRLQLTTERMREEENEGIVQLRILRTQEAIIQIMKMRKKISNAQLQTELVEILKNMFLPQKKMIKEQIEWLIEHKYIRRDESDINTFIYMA
UniProt Q9D5V5: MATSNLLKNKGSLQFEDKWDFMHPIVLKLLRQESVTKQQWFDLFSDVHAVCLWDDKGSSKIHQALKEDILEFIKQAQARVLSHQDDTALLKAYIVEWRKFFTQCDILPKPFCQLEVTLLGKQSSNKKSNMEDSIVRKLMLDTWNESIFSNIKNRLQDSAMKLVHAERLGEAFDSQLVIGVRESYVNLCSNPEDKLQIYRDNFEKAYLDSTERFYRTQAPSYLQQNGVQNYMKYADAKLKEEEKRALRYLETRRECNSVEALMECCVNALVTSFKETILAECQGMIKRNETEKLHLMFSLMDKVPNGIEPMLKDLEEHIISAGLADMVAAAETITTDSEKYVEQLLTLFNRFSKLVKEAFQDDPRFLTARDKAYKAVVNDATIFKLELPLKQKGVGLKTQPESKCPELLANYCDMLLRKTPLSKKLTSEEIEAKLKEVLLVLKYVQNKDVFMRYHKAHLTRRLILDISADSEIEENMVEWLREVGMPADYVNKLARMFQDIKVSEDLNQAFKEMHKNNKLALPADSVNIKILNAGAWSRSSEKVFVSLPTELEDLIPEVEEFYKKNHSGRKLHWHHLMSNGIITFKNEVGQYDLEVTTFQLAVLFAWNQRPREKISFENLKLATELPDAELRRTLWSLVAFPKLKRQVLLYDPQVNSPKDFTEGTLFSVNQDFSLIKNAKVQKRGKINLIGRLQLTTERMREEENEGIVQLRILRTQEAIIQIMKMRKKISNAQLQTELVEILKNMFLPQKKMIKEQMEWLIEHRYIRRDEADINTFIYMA

Experiments:
[1] = target: T1, Flag-OGT (O-GlcNAc transferase) (human (cDNA from THP-1 cells)) (UniProt O15294); assay: co-IP; HEK293T cells co-transfected with tagged plasmids (in some panels also Myc-SOCS3 or Myc-CUL5); lysed in cold RIPA buffer with protease inhibitors; antibodies and Protein G Agarose beads overnight at 4 °C; immunoblot
T1 sequence: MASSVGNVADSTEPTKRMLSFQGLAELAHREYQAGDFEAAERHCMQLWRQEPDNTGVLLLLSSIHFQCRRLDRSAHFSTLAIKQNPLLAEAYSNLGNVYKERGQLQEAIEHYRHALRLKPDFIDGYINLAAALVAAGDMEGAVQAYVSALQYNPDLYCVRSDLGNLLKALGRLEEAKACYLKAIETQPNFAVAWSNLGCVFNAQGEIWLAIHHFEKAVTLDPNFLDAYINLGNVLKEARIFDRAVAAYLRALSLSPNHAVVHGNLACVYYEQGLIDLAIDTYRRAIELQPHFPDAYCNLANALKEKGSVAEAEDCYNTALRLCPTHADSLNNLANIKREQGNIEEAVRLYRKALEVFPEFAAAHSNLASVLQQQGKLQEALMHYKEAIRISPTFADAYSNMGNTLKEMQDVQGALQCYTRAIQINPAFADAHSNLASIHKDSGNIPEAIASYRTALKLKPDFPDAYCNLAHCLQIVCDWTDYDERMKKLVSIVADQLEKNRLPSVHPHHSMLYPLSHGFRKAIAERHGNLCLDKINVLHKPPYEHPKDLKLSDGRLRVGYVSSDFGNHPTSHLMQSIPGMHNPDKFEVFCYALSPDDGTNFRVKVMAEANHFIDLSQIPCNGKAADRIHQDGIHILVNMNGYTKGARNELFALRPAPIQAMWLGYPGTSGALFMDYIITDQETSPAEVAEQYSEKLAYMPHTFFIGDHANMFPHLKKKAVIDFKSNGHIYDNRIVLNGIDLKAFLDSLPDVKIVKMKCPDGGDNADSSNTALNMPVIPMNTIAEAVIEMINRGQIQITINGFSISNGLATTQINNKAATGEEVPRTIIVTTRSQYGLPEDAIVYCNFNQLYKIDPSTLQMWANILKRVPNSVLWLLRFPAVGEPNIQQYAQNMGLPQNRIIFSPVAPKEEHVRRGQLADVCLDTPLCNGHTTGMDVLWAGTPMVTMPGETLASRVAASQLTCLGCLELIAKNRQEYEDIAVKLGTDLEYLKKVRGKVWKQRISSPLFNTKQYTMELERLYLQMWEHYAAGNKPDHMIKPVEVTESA

[2] = target: T2, OGT (O-GlcNAc transferase), endogenous in mouse BMDMs (mouse (endogenous in BMDMs)) (UniProt Q8CGY8); assay: co-IP; endogenous proteins in mouse BMDMs, with or without 20 μM TSLP for 4 h; RIPA lysate; antibodies and Protein G Agarose beads overnight at 4 °C; immunoblot
T2 sequence: T1 sequence with D495E, A765P, N972S, V993I

binding [1]	binding [2]	Substance
binds	–	Myc-CUL5 (Cullin5) (from UniProt Q93034 1-780)
–	binds	CUL5 (Cullin5), endogenous in mouse BMDMs (from UniProt Q9D5V5 1-780)
